# Reference: patent US20230056497A1, “CD206 Modulators Their Use and Methods for Preparation” (The United States of America, As Represented by the …, priority 2019, published 2023)
# Entries after “also recorded” stand apart in the source; their conditions may differ. Some results were stated once for a whole list of compounds, not compound by compound.
# Test system: M2 macrophages
# Assay: Anti-cell viability screening: reduction of M2 macrophage cell viability (Percentage Relative Cell Viability versus Log Molar Concentration)
# Format: cell-based
# Description: Assays were conducted in a 96-well black solid-bottom plate with a final assay volume of 100 μL.
row,Structure (SMILES),selective anti-M2 macrophage activity determined by reduction of M2 macrophage cell viability
1,"O=C(NCCc1cnc[nH]1)c1ccc(-c2ncc3cnc(-c4ccccc4)cn23)cc1 [Compound 1, N-(2-(1H-imidazol-5-yl)ethyl)-4-(6-phenylimidazo[1,5-a]pyrazin-3-yl)benzamide]",selectively target M2 macrophages; also recorded: selective anti-M2 macrophage activity
2,O=C(c1cc2ccccc2[nH]1)N1CCc2c(n(Cc3cccnc3)n(CCc3ccccc3)c2=O)C1 [Compound 2],selectively target M2 macrophages; also recorded: selective anti-M2 macrophage activity
